In the supplement of paper PMC10849652:
Some of the results follow.

The chains behind the UniProt entries cited, without tags or fusion partners. Where a name states a change or a piece, a line headed by the entry shows the natural chain unless it says otherwise.
UniProt B2RUZ4: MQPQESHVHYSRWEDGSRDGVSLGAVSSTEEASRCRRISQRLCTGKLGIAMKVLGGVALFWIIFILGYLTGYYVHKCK
UniProt O00193: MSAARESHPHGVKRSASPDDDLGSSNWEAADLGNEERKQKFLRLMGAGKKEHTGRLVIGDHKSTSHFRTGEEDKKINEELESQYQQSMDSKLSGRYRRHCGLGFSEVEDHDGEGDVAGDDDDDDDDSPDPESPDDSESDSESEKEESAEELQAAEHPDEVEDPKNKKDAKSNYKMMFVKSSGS
UniProt Q92536: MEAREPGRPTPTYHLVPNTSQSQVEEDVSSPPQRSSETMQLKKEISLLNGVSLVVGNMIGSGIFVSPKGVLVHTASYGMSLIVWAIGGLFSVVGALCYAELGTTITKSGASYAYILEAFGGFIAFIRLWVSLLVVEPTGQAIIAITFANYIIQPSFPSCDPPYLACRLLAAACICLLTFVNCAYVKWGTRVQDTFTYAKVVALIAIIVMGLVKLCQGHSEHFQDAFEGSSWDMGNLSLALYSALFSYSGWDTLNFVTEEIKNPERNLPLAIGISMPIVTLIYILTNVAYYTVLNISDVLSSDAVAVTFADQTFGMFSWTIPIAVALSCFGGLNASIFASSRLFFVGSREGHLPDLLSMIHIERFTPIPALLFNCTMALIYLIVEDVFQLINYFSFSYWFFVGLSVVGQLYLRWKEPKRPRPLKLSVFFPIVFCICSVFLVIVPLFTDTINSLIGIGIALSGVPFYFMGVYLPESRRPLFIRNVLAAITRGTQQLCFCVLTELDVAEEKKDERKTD
UniProt Q96DI7: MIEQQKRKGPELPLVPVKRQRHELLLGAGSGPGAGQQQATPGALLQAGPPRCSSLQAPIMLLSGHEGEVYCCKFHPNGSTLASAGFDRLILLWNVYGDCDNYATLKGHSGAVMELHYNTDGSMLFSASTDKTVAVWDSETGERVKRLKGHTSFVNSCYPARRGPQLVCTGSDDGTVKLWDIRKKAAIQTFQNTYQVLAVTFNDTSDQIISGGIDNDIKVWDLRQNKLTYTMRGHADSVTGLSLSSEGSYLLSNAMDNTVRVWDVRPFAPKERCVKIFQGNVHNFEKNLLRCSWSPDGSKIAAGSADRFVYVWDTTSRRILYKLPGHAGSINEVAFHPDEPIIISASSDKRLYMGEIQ
UniProt P51532, whole entry, looked up: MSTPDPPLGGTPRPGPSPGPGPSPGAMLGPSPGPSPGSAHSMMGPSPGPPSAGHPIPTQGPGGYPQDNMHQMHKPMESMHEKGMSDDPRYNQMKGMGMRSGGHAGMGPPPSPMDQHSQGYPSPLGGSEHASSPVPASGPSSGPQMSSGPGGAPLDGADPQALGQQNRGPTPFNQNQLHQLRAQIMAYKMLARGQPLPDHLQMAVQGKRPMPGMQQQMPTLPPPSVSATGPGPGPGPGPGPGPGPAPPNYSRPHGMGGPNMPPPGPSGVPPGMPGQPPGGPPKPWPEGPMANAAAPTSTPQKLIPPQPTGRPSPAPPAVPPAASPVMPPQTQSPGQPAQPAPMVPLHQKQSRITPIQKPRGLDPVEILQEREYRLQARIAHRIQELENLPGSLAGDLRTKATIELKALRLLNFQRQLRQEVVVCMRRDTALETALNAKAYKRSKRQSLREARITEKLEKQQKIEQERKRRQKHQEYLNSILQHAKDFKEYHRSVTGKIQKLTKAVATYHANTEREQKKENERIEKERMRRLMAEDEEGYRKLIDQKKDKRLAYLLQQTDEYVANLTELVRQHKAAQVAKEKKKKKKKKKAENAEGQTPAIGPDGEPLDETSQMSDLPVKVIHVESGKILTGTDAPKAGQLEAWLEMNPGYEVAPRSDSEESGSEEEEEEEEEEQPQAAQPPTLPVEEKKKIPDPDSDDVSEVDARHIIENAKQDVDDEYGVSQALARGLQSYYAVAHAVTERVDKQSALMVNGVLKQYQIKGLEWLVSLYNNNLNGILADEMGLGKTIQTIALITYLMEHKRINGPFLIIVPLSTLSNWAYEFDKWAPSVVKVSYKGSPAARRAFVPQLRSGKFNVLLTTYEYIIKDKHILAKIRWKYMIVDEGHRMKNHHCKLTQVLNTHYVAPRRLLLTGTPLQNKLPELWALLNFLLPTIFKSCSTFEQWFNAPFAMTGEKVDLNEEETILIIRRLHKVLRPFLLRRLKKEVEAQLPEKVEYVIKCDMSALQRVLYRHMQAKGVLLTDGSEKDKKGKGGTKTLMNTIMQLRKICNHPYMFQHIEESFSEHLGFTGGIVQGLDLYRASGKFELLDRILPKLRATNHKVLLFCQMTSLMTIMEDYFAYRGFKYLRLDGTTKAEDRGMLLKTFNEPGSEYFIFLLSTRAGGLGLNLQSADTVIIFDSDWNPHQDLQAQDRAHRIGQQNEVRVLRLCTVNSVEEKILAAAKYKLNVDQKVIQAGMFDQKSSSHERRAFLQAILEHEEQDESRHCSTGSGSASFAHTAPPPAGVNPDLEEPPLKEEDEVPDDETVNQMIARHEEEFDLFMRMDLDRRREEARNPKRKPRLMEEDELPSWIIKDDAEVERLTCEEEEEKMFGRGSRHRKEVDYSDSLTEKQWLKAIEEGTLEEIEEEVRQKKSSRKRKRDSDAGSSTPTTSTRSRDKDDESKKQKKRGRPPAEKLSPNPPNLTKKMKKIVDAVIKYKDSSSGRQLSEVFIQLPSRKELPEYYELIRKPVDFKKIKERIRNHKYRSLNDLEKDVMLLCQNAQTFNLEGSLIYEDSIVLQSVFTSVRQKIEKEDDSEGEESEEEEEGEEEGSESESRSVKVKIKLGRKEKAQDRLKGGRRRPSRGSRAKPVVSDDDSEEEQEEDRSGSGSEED
UniProt Q9H4L7: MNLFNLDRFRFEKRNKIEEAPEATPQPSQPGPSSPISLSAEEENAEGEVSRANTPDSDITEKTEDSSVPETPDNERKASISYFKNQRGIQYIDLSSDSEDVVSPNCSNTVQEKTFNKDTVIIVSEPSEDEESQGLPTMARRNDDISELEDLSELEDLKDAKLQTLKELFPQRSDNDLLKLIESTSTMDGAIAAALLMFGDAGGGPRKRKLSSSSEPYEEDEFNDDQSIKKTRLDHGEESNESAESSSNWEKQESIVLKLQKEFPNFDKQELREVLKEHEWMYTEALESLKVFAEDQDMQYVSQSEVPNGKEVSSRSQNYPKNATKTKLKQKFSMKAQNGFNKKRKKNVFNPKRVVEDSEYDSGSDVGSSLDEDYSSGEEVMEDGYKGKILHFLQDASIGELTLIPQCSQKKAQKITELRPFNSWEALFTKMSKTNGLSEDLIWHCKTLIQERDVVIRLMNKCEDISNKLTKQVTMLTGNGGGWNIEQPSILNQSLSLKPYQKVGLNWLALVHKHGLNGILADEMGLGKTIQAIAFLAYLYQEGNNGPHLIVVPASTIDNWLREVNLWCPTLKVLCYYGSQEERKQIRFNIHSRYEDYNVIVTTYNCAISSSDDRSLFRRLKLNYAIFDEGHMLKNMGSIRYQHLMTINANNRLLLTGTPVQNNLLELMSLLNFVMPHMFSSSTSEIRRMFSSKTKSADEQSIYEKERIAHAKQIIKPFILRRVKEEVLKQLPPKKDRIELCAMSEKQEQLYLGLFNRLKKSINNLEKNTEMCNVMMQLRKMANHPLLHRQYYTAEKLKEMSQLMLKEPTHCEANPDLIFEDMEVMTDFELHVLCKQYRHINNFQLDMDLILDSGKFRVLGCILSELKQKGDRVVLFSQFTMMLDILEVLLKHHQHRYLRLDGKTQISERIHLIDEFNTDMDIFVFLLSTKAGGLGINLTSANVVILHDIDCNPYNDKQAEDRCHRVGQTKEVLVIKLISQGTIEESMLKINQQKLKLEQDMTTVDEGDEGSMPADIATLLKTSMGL
UniProt P18583: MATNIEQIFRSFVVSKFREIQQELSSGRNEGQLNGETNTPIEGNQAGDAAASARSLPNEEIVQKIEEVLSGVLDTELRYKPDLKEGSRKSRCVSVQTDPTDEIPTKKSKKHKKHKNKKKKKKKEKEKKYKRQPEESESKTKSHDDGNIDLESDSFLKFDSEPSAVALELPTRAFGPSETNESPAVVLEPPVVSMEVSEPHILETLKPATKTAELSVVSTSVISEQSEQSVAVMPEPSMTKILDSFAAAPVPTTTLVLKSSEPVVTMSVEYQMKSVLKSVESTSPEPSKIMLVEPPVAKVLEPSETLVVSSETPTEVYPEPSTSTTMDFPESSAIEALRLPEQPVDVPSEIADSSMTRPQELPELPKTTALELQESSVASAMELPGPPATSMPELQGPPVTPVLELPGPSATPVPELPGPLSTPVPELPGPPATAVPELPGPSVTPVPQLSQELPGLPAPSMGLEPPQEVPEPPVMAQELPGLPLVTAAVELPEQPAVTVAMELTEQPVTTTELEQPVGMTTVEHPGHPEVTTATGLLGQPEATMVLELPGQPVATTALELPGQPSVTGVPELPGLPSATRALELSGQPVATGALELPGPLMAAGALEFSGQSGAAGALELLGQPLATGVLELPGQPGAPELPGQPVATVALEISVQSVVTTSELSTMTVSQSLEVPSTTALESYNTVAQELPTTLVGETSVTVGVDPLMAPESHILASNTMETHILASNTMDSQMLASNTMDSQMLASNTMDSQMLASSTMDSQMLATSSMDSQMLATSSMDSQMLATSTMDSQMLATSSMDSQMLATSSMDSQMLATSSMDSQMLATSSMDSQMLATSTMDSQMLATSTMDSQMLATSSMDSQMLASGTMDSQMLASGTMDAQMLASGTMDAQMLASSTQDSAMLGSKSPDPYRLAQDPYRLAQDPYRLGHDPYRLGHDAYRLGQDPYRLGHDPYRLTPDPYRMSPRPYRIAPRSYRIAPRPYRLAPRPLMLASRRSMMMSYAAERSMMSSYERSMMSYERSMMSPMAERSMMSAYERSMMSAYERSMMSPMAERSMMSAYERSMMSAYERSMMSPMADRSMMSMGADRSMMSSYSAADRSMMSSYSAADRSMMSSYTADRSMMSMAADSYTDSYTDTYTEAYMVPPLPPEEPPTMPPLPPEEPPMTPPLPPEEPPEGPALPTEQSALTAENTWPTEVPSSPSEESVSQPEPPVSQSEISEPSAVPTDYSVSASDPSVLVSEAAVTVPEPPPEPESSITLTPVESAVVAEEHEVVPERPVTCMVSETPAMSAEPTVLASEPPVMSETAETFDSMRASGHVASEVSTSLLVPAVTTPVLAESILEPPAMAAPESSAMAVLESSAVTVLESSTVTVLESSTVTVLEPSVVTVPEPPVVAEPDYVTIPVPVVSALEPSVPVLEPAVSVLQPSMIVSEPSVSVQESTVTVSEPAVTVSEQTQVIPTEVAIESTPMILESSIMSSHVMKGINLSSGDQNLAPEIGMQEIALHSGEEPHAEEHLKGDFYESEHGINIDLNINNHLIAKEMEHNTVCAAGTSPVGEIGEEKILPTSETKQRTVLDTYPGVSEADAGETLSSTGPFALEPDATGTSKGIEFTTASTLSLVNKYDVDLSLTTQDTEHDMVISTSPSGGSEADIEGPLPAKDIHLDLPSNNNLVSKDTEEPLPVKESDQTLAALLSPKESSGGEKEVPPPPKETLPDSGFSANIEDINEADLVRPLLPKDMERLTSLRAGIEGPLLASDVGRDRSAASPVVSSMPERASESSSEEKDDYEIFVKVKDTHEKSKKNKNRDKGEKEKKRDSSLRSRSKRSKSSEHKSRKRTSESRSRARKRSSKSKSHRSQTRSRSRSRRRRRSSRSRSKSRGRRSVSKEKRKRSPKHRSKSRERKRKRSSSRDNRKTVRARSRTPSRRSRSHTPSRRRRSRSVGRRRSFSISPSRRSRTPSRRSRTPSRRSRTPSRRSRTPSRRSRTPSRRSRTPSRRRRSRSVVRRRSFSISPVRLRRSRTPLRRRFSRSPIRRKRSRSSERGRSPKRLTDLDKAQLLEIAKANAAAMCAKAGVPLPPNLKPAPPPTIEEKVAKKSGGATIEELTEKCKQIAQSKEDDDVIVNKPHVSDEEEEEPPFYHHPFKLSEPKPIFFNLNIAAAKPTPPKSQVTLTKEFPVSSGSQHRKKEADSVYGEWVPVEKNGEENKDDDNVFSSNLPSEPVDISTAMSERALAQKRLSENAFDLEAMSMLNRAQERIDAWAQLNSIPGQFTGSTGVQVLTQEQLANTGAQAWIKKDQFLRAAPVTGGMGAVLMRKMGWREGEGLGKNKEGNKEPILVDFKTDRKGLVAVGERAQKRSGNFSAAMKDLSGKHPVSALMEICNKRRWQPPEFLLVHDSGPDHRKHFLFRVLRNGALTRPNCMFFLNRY
UniProt P08579, whole entry, looked up: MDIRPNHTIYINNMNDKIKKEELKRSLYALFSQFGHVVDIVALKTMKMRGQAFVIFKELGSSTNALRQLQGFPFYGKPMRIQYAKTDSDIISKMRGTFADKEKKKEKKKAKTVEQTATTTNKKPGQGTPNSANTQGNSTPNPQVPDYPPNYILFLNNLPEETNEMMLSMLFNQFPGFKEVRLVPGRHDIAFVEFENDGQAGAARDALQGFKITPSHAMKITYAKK
UniProt P62318, whole entry, looked up: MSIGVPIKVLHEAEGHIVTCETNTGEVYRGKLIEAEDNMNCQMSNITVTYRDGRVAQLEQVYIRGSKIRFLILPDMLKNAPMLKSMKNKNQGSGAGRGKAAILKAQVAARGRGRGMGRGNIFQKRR

Legend:
Assay in all cases: log2 fold change, soluble protein after heating vs DMSO (PISA); higher = thermal stabilisation; K562 cells, 10 uM, 30 min; active = over 0.2 and 3.5 SD of the protein, either way, in both replicates (recomputed)
[1] = compound: CS(=O)(=O)c1ccc(-c2cnc(N)c(C(=O)Nc3ccccc3)n2)cc1
Method in brief: (§1)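 Aliquots of K562 cells (2×10^6 cells/mL) treated with 10 μM compound for 30 min were heated for 3 min over 48°C-58°C. After pooling and extraction in PBS with 0.5% NP-40 at 4°C, soluble protein from a 21,000xg, 90 min spin was quantified by TMTpro 16plex LC-MS/MS with channel sums equalised. Thermal stability is expressed against control samples, from duplicates, as a log2 fold change.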

[2] = compound: C[C@@H](Oc1cc(-c2cnn(C3CCNCC3)c2)cnc1N)c1c(Cl)ccc(F)c1Cl [crizotinib]
Method in brief: as §1

[3] = compound: C[C@@H]1COCCN1C2=NC(=NC(=C2)C3(CC3)S(=O)(=O)C)C4=C5C=CNC5=CC=C4
Method in brief: as §1

[4] = compound: C[C@H](C1=CC=C(C=C1)C(=O)NC2=C3C=CNC3=NC=C2)N
Method in brief: as §1

[5] = compound: Cc1cc(Nc2cc(CN3CCOCC3)c3nc(C)c(Cc4ccc(Cl)cc4F)n3n2)n[nH]1 [gandotinib]
Method in brief: as §1

[6] = compound: Cc1cc(SCc2sc(-c3ccc(C(F)(F)F)cc3)nc2C)ccc1OCC(=O)O
Method in brief: as §1

[7] = compound: Cc1ccc(-n2nc(C(C)(C)C)cc2NC(=O)Nc2ccc(OCCN3CCOCC3)c3ccccc23)cc1 [doramapimod]
Method in brief: as §1

[8] = compound: Cc1ccc(C(=O)N(CCCN)[C@@H](c2nc3cc(Cl)ccc3c(=O)n2Cc2ccccc2)C(C)C)cc1 [ispinesib]
Method in brief: as §1

[9] = compound: C[C@H](Nc1ncnc2nc[nH]c12)c1cc2cccc(Cl)c2c(=O)n1-c1ccccc1 [duvelisib]
Method in brief: as §1

[10] = compound: Cc1cc(Nc2cc(N3CCN(C)CC3)nc(Sc3ccc(NC(=O)C4CC4)cc3)n2)n[nH]1 [tozasertib]
Method in brief: as §1

Measured: log2 fold change

SNX5 (UniProt Q9Y5X3)
active: [2] -0.32
inactive: [1] -0.075 | [3] 0.022 | [4] -0.014 | [5] -0.138 | [6] 0.036 | [7] -0.019 | [8] -0.236

SMIM1 (UniProt B2RUZ4)
inactive: [1] -0.068 | [2] -0.276 | [4] -0.226 | [9] -0.171 | [5] 0.07 | [10] 0.118 | [6] -0.122 | [7] -0.012

SMG1 (UniProt Q96Q15)
inactive: [1] 0.04 | [2] 0.012 | [3] -0.083 | [4] 0.016 | [5] -0.024 | [6] 0.098 | [7] 0.051 | [8] 0.033

SNUPN (UniProt O95149)
inactive: [1] 0.019 | [2] -0.187 | [3] 0.045 | [4] -0.007 | [5] -0.074 | [6] -0.014 | [7] -0.007 | [8] 0.029

SMAD2 (UniProt Q15796)
inactive: [1] 0.132 | [2] 0.255 | [3] -0.015 | [4] 0.012 | [5] 0.045 | [6] 0.071 | [7] -0.04 | [8] -0.019

SNX14 (UniProt Q9Y5W7)
inactive: [1] 0.118 | [2] 0.083 | [3] 0.032 | [9] -0.104 | [10] -0.03 | [6] 0.131 | [7] 0.062 | [8] 0.07

SMAD9 (UniProt O15198)
inactive: [1] 0.016 | [2] 0.019 | [3] 0.068 | [4] 0.037 | [5] -0.197 | [6] 0.074 | [7] -0.013 | [8] -0.169

SLC9A6 isoform 2 (UniProt Q92581)
active: [8] -0.331
inactive: [1] 0.028 | [2] 0.048 | [3] 0.022 | [4] -0.005 | [5] -0.105 | [6] -0.067 | [7] 0

SMAP (UniProt O00193)
inactive: [1] 0.004 | [2] -0.06 | [3] -0.01 | [4] -0.082 | [5] -0.032 | [6] -0.03 | [7] 0.023 | [8] -0.015

SLC7A6 (UniProt Q92536)
inactive: [1] -0.011 | [2] 0.065 | [3] -0.173 | [4] -0.149 | [5] -0.114 | [6] -0.041 | [7] 0.001 | [8] 0.17

SNRNP40 (UniProt Q96DI7)
inactive: [1] 0.033 | [2] 0.116 | [3] 0.14 | [4] 0.023 | [5] 0.22 | [6] -0.059 | [7] 0.071 | [8] 0.077

SMARCA4 (UniProt P51532)
inactive: [1] 0.216 | [2] 0.01 | [3] 0.036 | [4] 0.188 | [5] 0.042 | [6] -0.064 | [7] 0.085 | [8] -0.248

Two neighbouring entries already listed, for reference:
SNUPN (UniProt O95149)
inactive: [1] 0.019 | [2] -0.187 | [3] 0.045 | [4] -0.007 | [5] -0.074 | [6] -0.014 | [7] -0.007 | [8] 0.029

SMAD2 (UniProt Q15796)
inactive: [1] 0.132 | [2] 0.255 | [3] -0.015 | [4] 0.012 | [5] 0.045 | [6] 0.071 | [7] -0.04 | [8] -0.019

Later entries

SP100 isoform 4 (UniProt P23497)
inactive: [1] -0.002 | [2] 0.062 | [3] 0.071 | [4] -0.1 | [5] -0.008 | [6] -0.016 | [7] -0.046 | [8] 0.062

SMARCAD1 isoform 2 (UniProt Q9H4L7)
inactive: [1] 0.029 | [2] -0.112 | [3] 0.088 | [4] -0.054 | [5] -0.042 | [6] 0.15 | [7] -0.058 | [8] 0

SOX5 (UniProt P35711)
inactive: [1] 0.07 | [2] 0.046 | [4] 0.041 | [7] 0.054 | [8] 0.004

SON isoform 9 (UniProt P18583)
inactive: [1] 0.14 | [2] -0.033 | [3] -0.241 | [9] -0.088 | [5] -0.002 | [10] -0.029 | [6] 0.113 | [7] -0.117 | [8] -0.146

SOS1 (UniProt Q07889)
inactive: [1] -0.039 | [2] -0.084 | [3] 0.047 | [10] -0.031 | [7] 0.189 | [8] -0.016

SNRPB2 (UniProt P08579)
inactive: [1] -0.014 | [2] 0.02 | [3] -0.024 | [4] 0.008 | [5] 0.026 | [6] -0.048 | [7] -0.01 | [8] 0.027

SPAG9 isoform 4 (UniProt O60271)
inactive: [1] 0.144 | [2] -0.061 | [4] 0.123 | [7] 0.042 | [8] -0.128

SNRPD3 (UniProt P62318)
inactive: [1] -0.102 | [2] 0.011 | [3] 0.036 | [4] 0.041 | [5] 0.034 | [6] -0.04 | [7] 0.055 | [8] 0.006

SPAG9 (UniProt O60271)
inactive: [1] 0.046 | [2] -0.056 | [3] -0.002 | [4] 0.065 | [5] -0.034 | [6] 0.012 | [7] 0.023 | [8] -0.188

SNX19 (UniProt Q92543)
inactive: [1] 0.009 | [2] -0.24 | [3] 0.112 | [7] -0.061

SNX25 (UniProt Q9H3E2)
inactive: [1] 0 | [2] -0.022 | [9] 0.065 | [6] -0.005 | [7] 0.115

SORT1 (UniProt Q99523)
inactive: [1] 0.007 | [3] -0.019 | [4] -0.051 | [5] -0.069 | [6] -0.066 | [7] -0.042 | [8] -0.032
active: [2] -0.742

SMARCB1 (UniProt Q12824)
inactive: [1] 0.024 | [2] -0.128 | [4] 0.284 | [5] 0.49 | [6] 0.097 | [7] 0.049

SNX2 isoform 2 (UniProt O60749)
inactive: [1] 0.135 | [2] -0.145 | [3] 0.071 | [4] 0.108 | [6] -0.029 | [7] 0.17
